Measurements reported in PubChem BioAssay AID1259405 (NCATS, 2018).

- Aim: 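Mouse-designed siRNAs used to find CHO productivity engineering targets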 (primary screen)
- Cells: Chinese hamster CHO-K1 ovary cells with stable secreted eGFP expression
- Reagent: single siRNA against mouse genes, 0.8 pmol siRNA per well (2 µl of 400 nM stock)
- Duration: 3 days
- Measured: 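Percent of the per-plate non-targeting control median for intracellular GFP per well by laser scanning cytometry and for cell viability by ATP luminescence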
- Scale: GFP, % of control: higher = more GFP per well, higher productivity; viability (ATP), % of control: higher = more viable cells (more ATP)
- Active means: 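Called active when intracellular GFP, relative to negative control, is at or above 120%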
Shown is one part, drawn at random, of about 50,000 deposited reagents. In the full data, about 4,000 (8%) got an active call. 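Mouse siRNA library applied to hamster cells; one well for each siRNA.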 Reagents against one gene are numbered here.

Gimap9 #1 — GFP, % of control: 84.3; viability (ATP), % of control: 77.9; activity call: inactive
Gimap9 #2 — GFP, % of control: 92.8; viability (ATP), % of control: 69.6; activity call: inactive
Gimap9 #3 — GFP, % of control: 59.2; viability (ATP), % of control: 86.8; activity call: inactive
Susd6 #1 — GFP, % of control: 73; viability (ATP), % of control: 57.3; activity call: inactive
Susd6 #2 — GFP, % of control: 56.7; viability (ATP), % of control: 86.3; activity call: inactive
Susd6 #3 — GFP, % of control: 81.4; viability (ATP), % of control: 88.7; activity call: inactive
Serpina3c #1 — GFP, % of control: 60.1; viability (ATP), % of control: 59; activity call: inactive
Serpina3c #2 — GFP, % of control: 58.6; viability (ATP), % of control: 46.5; activity call: inactive
Serpina3c #3 — GFP, % of control: 113; viability (ATP), % of control: 95.8; activity call: inactive
Or2ag13 #1 — GFP, % of control: 75.5; viability (ATP), % of control: 53.1; activity call: inactive
Or2ag13 #2 — GFP, % of control: 102; viability (ATP), % of control: 73.3; activity call: inactive
Or2ag13 #3 — GFP, % of control: 107; viability (ATP), % of control: 102; activity call: inactive
Tbx6 #1 — GFP, % of control: 91.8; viability (ATP), % of control: 90.9; activity call: inactive
Tbx6 #2 — GFP, % of control: 53; viability (ATP), % of control: 59.9; activity call: inactive
Tbx6 #3 — GFP, % of control: 45.7; viability (ATP), % of control: 68.8; activity call: inactive
Cacna1g #1 — GFP, % of control: 44.8; viability (ATP), % of control: 78.2; activity call: inactive
Cacna1g #2 — GFP, % of control: 40.4; viability (ATP), % of control: 32.1; activity call: inactive
Cacna1g #3 — GFP, % of control: 78.6; viability (ATP), % of control: 36.4; activity call: inactive
Eftud2 #1 — GFP, % of control: 110; viability (ATP), % of control: 82.4; activity call: inactive
Eftud2 #2 — GFP, % of control: 90.2; viability (ATP), % of control: 86.1; activity call: inactive
Hsd17b3 #1 — GFP, % of control: 120; viability (ATP), % of control: 99.8; activity call: inactive
Hsd17b3 #2 — GFP, % of control: 63.7; viability (ATP), % of control: 73.5; activity call: inactive
Hsd17b3 #3 — GFP, % of control: 82.6; viability (ATP), % of control: 78.3; activity call: inactive
Pclo #1 — GFP, % of control: 91; viability (ATP), % of control: 74.5; activity call: inactive
Pclo #2 — GFP, % of control: 113; viability (ATP), % of control: 73.8; activity call: inactive
Ghrhr #1 — GFP, % of control: 61.6; viability (ATP), % of control: 55.7; activity call: inactive
Ghrhr #2 — GFP, % of control: 98.7; viability (ATP), % of control: 61.6; activity call: inactive
Ghrhr #3 — GFP, % of control: 81.8; viability (ATP), % of control: 90.3; activity call: inactive
1600014C10Rik #1 — GFP, % of control: 116; viability (ATP), % of control: 106; activity call: inactive
1600014C10Rik #2 — GFP, % of control: 79.1; viability (ATP), % of control: 90.7; activity call: inactive
1600014C10Rik #3 — GFP, % of control: 127; viability (ATP), % of control: 89.6; activity call: active
Stra6 #1 — GFP, % of control: 72.5; viability (ATP), % of control: 72.7; activity call: inactive
Stra6 #2 — GFP, % of control: 90.6; viability (ATP), % of control: 101; activity call: inactive
Stra6 #3 — GFP, % of control: 99.4; viability (ATP), % of control: 71.9; activity call: inactive

Sorted by “GFP, % of control” (highest first): some entries from above.
1600014C10Rik #1 — GFP, % of control: 116; viability (ATP), % of control: 106; activity call: inactive
Pclo #2 — GFP, % of control: 113; viability (ATP), % of control: 73.8; activity call: inactive
Ghrhr #2 — GFP, % of control: 98.7; viability (ATP), % of control: 61.6; activity call: inactive
Pclo #1 — GFP, % of control: 91; viability (ATP), % of control: 74.5; activity call: inactive
Ghrhr #3 — GFP, % of control: 81.8; viability (ATP), % of control: 90.3; activity call: inactive
Ghrhr #1 — GFP, % of control: 61.6; viability (ATP), % of control: 55.7; activity call: inactive

The results go on.
Rpl37 #1 — GFP, % of control: 69.4; viability (ATP), % of control: 55.2; activity call: inactive
Rpl37 #2 — GFP, % of control: 87.4; viability (ATP), % of control: 40; activity call: inactive
Rpl37 #3 — GFP, % of control: 87.8; viability (ATP), % of control: 63.2; activity call: inactive
F2rl2 #1 — GFP, % of control: 73.5; viability (ATP), % of control: 94.4; activity call: inactive
F2rl2 #2 — GFP, % of control: 55.3; viability (ATP), % of control: 74.3; activity call: inactive
F2rl2 #3 — GFP, % of control: 53.6; viability (ATP), % of control: 60.6; activity call: inactive
Flywch2 #1 — GFP, % of control: 103; viability (ATP), % of control: 65; activity call: inactive
Flywch2 #2 — GFP, % of control: 69.9; viability (ATP), % of control: 88.7; activity call: inactive
Flywch2 #3 — GFP, % of control: 50.4; viability (ATP), % of control: 61.4; activity call: inactive
H1f5 #1 — GFP, % of control: 48; viability (ATP), % of control: 47.9; activity call: inactive
H1f5 #2 — GFP, % of control: 115; viability (ATP), % of control: 97.4; activity call: inactive
H1f5 #3 — GFP, % of control: 26.6; viability (ATP), % of control: 57.7; activity call: inactive
Cbln1 #1 — GFP, % of control: 60.5; viability (ATP), % of control: 62.5; activity call: inactive
Cbln1 #2 — GFP, % of control: 49.3; viability (ATP), % of control: 61.8; activity call: inactive
Cbln1 #3 — GFP, % of control: 62.8; viability (ATP), % of control: 67.3; activity call: inactive
Osbpl11 #1 — GFP, % of control: 36.8; viability (ATP), % of control: 50.8; activity call: inactive
Osbpl11 #2 — GFP, % of control: 50.7; viability (ATP), % of control: 50.7; activity call: inactive
Osbpl11 #3 — GFP, % of control: 96.1; viability (ATP), % of control: 107; activity call: inactive
